# This is one part of the list. These are raw signals, not scaled to a control.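 In the initial screen, polymyxin B was used at a concentration that permeabilizes Salmonella's outer membrane but not its inner membrane. Maximum growth was set by DMSO wells with or without polymyxin B. Since plates varied, data were ranked per plate, and compounds giving the lowest OD600 advanced as hits.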
# System: Salmonella enterica serovar Typhimurium SL1344
# Test: bacterial growth OD600 after 18 h with compound and polymyxin B; higher = more bacterial growth (less inhibition)
# Conditions: 50 µM, Mueller-Hinton broth
Structure (SMILES),bacterial growth OD600 (polymyxin B 1 µg/mL),bacterial growth OD600 (polymyxin B 0.75 µg/mL)
O=C(c1ccc2ncccc2c1)N1CCc2onc(-c3ccccc3)c2C1,0.885,–
CC(=O)C1CCCN(Cc2cnc(S(=O)(=O)C(C)C)n2CCc2ccccc2)C1 (stereo not given),1.22,–
COc1ccccc1N1CCN(c2ncccc2CNC(=O)C2(C(N)=O)CC2)CC1,0.868,–
COc1ccc(CCc2nnc(CCC(=O)NCC3CC34CCCCC4)o2)cc1 (stereo not given),1.08,–
COc1ccc(CNC(=O)CCC2CCCN(Cc3ccc(C)cc3)C2)c(OC)c1 (stereo not given),–,0.783
CCN(CC)c1ncccc1CNC(=O)Cc1cccs1,–,0.797
Cc1cccc(-c2cccc(C(=O)N3CCc4c(cnc(C)c4CNC(=O)C4CCCO4)C3)c2)c1 (stereo not given),–,0.479
CCn1ccnc1CNC1CC(=O)N(CCc2cccc(Cl)c2)C1 (stereo not given),0.952,–
COC(=O)CCC(=O)N(C)CC1CCN(CCc2ccccc2OC)CC1,1.01,–
COc1ccc(NC2CCCN(C(=O)c3ccc(Cl)cc3F)C2)cc1 (stereo not given),0.888,–
CCn1ncc(CN2CCOC(Cc3cccc(C(F)(F)F)c3)C2)c1C (stereo not given),–,0.752
COc1ccccc1CC(=O)Nc1cnn(CC(=O)N2CCC(c3cccc(OC)c3OC)C2)c1 (stereo not given),–,0.856
CN(Cc1ccon1)C(=O)c1ccc(OC2CCN(C(=O)C3CC3)CC2)cc1,1,–
COc1cc(CC2(CCC(=O)NCc3cnn(-c4ccccc4OC)c3)CCC(=O)N2)ccc1F (stereo not given),–,0.804
COC(=O)CCNC(=O)C1CCN(c2nc(-c3ccccc3)nc3c2CCC3)CC1,–,0.808
O=C(Cc1ccc(N2CCC(NCCc3ccc(C(F)(F)F)cc3)CC2)cc1)NCc1ccccn1,–,0.661
Cc1cnc(C(=O)N2CCc3[nH]nc(-c4ccc(Cl)cc4)c3C2)cn1,–,0.733
CC1(C(=O)N2CCCC(CCc3ccccc3)C2)CC1 (stereo not given),–,0.706
COc1ccc(-c2cnnc(NCCN3CCCCC3CO)n2)cc1 (stereo not given),–,0.751
CN(C(=O)CC1(c2ccccc2Cl)CC(=O)N(C2CCCC2)C1=O)C(C1CC1)C1CC1 (stereo not given),–,-0.002

# Entries of single compounds as entered above:
# `O=C(Cc1ccc(N2CCC(NCCc3ccc(C(F)(F)F)cc3)CC2)cc1)NCc1ccccn1` as listed: bacterial growth OD600 (polymyxin B 0.75 µg/mL): 0.661
# `COc1ccc(NC2CCCN(C(=O)c3ccc(Cl)cc3F)C2)cc1` (stereo not given) as listed: bacterial growth OD600 (polymyxin B 1 µg/mL): 0.888

# Reference: the supplement of paper PMC12889115
